# Values from PubChem BioAssay AID1671195 (Yale University, 2021)
# Purpose: 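Knockdowns that increase or decrease uptake of fluorescent LDL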 (primary screen)
# Cells: human Huh7 hepatoma cells
# Reagents: siRNA pool against human genes, 18 nM
# Time to read-out: about 2 to 2.5 days of knockdown, then 8 h LDL uptake
# Treatment: DiI-labelled LDL at 30 µg/ml for 8 h, in lipoprotein-deficient serum medium
# Read-out: 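Per-cell DiI-LDL intensity by automated imaging; well means scaled to the plate median and given as a robust z-score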
# Direction: robust z-score: higher = more LDL uptake after knockdown
# Active means: 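Active when two or more replicates show a robust z-score above 2 or below -2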
# The deposit covers about 22,000 reagents; this is a random part of them. About 1,510 of them (6.9%) were called active. 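Active includes knockdowns raising or lowering LDL uptake; positive z-scores mean more uptake, negative mean less.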 The numbers tell different reagents against one gene apart.
gene,reagent,"robust z-score, replicate 1","robust z-score, replicate 2","robust z-score, replicate 3",Call
MYL7,1,-0.0557,0.0482,-0.159,inactive
HLCS,1,0.0708,1.85,1.87,inactive
ACTL7A,1,-0.00778,-0.403,-0.407,inactive
CCL17,1,-0.483,0.0898,-0.145,inactive
OR2L3,1,-0.719,-0.315,-0.498,inactive
MIATNB,1,-0.218,0.136,-0.224,inactive
INTS5,1,-1.1,-0.284,-1.21,inactive
LOC442437 (retired record),1,1.27,0.867,0.828,inactive
GLYATL1,1,-1.08,-0.502,-0.587,inactive
OR1K1,1,0.556,1.36,1.08,inactive
CREB3L3,1,4.07,3.01,2.54,inactive
RMP64,1,0.182,1.24,0.542,inactive
GET1,1,-0.734,-0.309,-1.05,inactive
PFKFB4,1,-0.868,-0.597,-0.731,inactive
NUBP2,1,-1.22,-0.777,-0.832,inactive
CLDN19,1,0,-0.0846,0.0185,inactive
ZNF408,1,-0.0736,-0.121,-0.404,inactive
PDE1C,1,3.09,0.339,1.4,inactive
SMPD2,1,0.974,-0.473,-0.678,inactive
CRISP2,1,0.582,0.678,0.0978,inactive

3 entries from above in another layout.
gene	reagent	robust z-score, replicate 1	robust z-score, replicate 2	robust z-score, replicate 3	Call
ACTL7A	1	-0.00778	-0.403	-0.407	inactive
CCL17	1	-0.483	0.0898	-0.145	inactive
OR2L3	1	-0.719	-0.315	-0.498	inactive

Additional records:
gene,reagent,"robust z-score, replicate 1","robust z-score, replicate 2","robust z-score, replicate 3",Call
LOC389934 (retired record),1,1.63,1.35,0.571,inactive
VPS35L,1,-0.12,0.673,-0.268,inactive
CARS1,1,0.571,-0.139,-0.299,inactive
PDXDC2P-NPIPB14P,1,1.58,2.02,1.29,inactive
PDXDC2P-NPIPB14P,2,-0.327,-0.403,-0.709,inactive
LOC343484 (retired record),1,-0.603,-0.281,-0.369,inactive
POGLUT3,1,-0.807,-0.474,-0.849,inactive
IFT81,1,-0.0447,-0.453,0.33,inactive
SPSB2,1,0.224,1.02,0.753,inactive
NF1,1,-0.971,-0.983,-1.48,inactive
ZNF501,1,-0.496,-0.732,-0.558,inactive
TNC,1,-2,-1.75,-2.58,active
LOC442219 (retired record),1,-0.28,-0.539,-0.729,inactive
RHEBL1,1,1.27,4.18,2.8,active
C9orf57,1,-1.35,-1.85,-2.09,inactive
MSLNL,1,-1.48,-1.17,-0.93,inactive
LOC389777 (retired record),1,-1.35,-1.04,-1.56,inactive
DENND5A,1,0.378,-0.435,1.07,inactive
PHF6,1,1.9,3.31,1.87,active
RAI14,1,2.45,2.47,4.7,active
FEM1C,1,-0.0249,-0.604,0.974,inactive
BSG,1,-0.411,0.0364,-0.405,inactive
ZHX1,1,1.62,2.5,2.6,active
MMP20,1,0.861,0.604,0.217,inactive
UPRT,1,0.971,1.13,1.65,inactive
KLK15,1,-1.03,-1.38,-0.847,inactive
